{"sequences": {"note": "Amino acid sequences for entries named in this document (tags omitted).", "UniProt Q8NER1, whole entry, looked up": "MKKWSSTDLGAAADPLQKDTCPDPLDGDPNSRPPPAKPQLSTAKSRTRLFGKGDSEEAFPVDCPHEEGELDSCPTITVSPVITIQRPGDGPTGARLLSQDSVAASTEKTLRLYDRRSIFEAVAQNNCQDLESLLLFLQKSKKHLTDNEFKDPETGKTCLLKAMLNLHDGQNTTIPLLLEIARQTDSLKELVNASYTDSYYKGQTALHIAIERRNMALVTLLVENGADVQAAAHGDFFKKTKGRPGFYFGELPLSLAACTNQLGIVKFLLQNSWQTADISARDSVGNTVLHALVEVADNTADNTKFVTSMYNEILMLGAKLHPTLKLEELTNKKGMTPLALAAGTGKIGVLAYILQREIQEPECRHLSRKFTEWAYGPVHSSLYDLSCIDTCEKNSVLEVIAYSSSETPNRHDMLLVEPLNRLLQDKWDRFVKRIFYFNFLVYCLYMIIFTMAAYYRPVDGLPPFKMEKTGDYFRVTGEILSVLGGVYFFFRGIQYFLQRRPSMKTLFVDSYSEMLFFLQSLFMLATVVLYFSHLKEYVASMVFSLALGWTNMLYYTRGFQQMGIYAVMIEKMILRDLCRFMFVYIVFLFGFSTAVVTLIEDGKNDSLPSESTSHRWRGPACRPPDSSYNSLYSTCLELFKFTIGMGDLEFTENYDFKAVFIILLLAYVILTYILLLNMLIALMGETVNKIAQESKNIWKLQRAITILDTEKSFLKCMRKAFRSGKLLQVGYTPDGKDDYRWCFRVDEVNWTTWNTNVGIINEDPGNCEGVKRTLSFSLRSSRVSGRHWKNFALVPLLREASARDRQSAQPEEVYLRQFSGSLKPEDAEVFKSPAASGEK"}, "source": "PubChem BioAssay AID540275", "about": "(National Center for Advancing Translational Sciences (NCATS), 2011)", "note": "Hit rate of the full screen: of about 320,000 compounds, about 620 (0.19%) were called active. The shares of active, inactive and inconclusive entries below differ from those in the screen. Rule as the data show it: active = activation above about 80%; inconclusive = between about 30% and that limit; inactive = weaker than that."}
{"biological_target": "Transient receptor potential cation channel subfamily V member 1 (Homo sapiens) (UniProt Q8NER1)", "assay": "HTS Assay for Compounds that Act as Agonists of the Vanilloid Receptor 1; also: 0% is about no effect", "conditions": "TRPV1-expressing cells, Fluo-8 calcium influx, agonist mode; at 8.33 µM, hits give high values", "method_in_brief": "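Fluo-8 calcium influx in TRPV1-expressing cells, kinetic read (ex 480/em 520 nm). Compound added and read 3 min for agonist activity, followed by capsaicin at EC20 final and 2 min further read for enhancement.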"}
{"smiles": "N#CC1=C2C=Cc3ccccc3N2CCCC1=O", "activation": "inconclusive: 37.1%"}
{"smiles": "CCOC(=O)c1nnn(-c2nonc2N)c1COc1ccc(F)cc1", "activation": "inconclusive: 37.7%"}
{"smiles": "Cc1cc(C(=O)OCC(=O)Nc2cc(S(=O)(=O)N(C)C)ccc2C)c2ccccc2n1", "activation": "inconclusive: 45.9%"}
{"smiles": "CCOC(=O)NC(c1cccc(Cl)c1)C1CCCCCC1=O", "note": "(configuration not stated)", "activation": "inactive: -9.8%"}
{"smiles": "O=C(NC1CCN(C(=O)Nc2ccc(F)cc2)CC1)c1ccc(F)cc1", "activation": "inactive: 3.78%"}
{"smiles": "Cc1cc(=O)[nH]c(SCC(=O)Nc2ccc3c(c2)OCCO3)n1", "activation": "inactive: 1.13%"}
{"smiles": "COc1ccc(CCCC(=O)NCc2ccccc2)cc1C", "activation": "inconclusive: 75%"}
{"smiles": "O=C(CSc1ccc(F)cc1)N1CCN(S(=O)(=O)c2ccccc2)CC1", "activation": "inconclusive: 68.7%"}
{"smiles": "COc1ccc2nc(C)cc(N/N=C/c3cccc(OC)c3O)c2c1", "activation": "inconclusive: 79.6%"}
{"smiles": "CCCCNc1nc(Nc2ccc(C)c(Cl)c2)c2cnn(C)c2n1", "activation": "inconclusive: 65.7%"}
{"smiles": "CC(NC(=O)c1ccccc1[N+](=O)[O-])C1CC2CCC1C2", "note": "(configuration not stated)", "activation": "inactive: 2.43%"}
{"smiles": "Cc1ccc(OCC(=O)N/N=C/c2ccncc2)cc1C", "activation": "inconclusive: 59.5%"}
{"smiles": "CC(C)=NOC(=O)c1ccc(-c2ccccc2)cc1", "activation": "inconclusive: 53%"}
{"smiles": "CCOC(=O)C1CCN(C(=O)Nc2ccc3snnc3c2)CC1", "activation": "inconclusive: 77.2%"}
{"smiles": "O=C(Cc1ccc(-n2cccc2)cc1)NCc1cccs1", "activation": "inactive: 23.1%"}
{"smiles": "COc1cccc(C(=O)Nc2ccc(NC(=O)C(C)(C)C)cn2)c1", "activation": "inactive: -19.4%"}
{"smiles": "O=C(c1cc(COc2c(F)cccc2F)on1)N1CCC(c2ccccc2Cl)C1", "note": "(configuration not stated)", "activation": "inconclusive: 53.4%"}
{"smiles": "O=C(COc1ccccc1O)Nc1ccc(Cl)cc1", "activation": "inconclusive: 58.6%"}
{"smiles": "Cc1ccc(NC(=O)CN2C(=O)CCSc3ccc(S(=O)(=O)N4CCCC4)cc32)cc1C", "activation": "inconclusive: 70.8%"}
{"smiles": "CN(C)S(=O)(=O)c1ccc(C(=O)NCC(=O)N/N=C/c2ccccc2)cc1", "activation": "inconclusive: 32.2%"}
{"smiles": "CCCn1nc(NC(=O)CC(C)C)c2cc3cccc(C)c3nc21", "activation": "inconclusive: 36.9%"}
{"smiles": "Cc1nn2c(N3CCN(C(=O)c4ccco4)CC3)cc(C(C)(C)C)nc2c1-c1ccccc1", "activation": "inconclusive: 44.8%"}
{"smiles": "O=C(NCCc1ccccc1)c1oc2ccccc2c1COc1ccccc1", "activation": "inconclusive: 53%"}
{"smiles": "COc1ccc(CN(C)CC(=O)Nc2ccc(SC(F)F)cc2)cc1OC", "activation": "inconclusive: 68.5%"}
{"smiles": "Cc1ccccc1C(=O)Nc1cccc(NC(=O)c2ccc(-c3ccc(Br)cc3)o2)c1", "activation": "inactive: -2.21%"}
{"smiles": "BrC(/C=C\\c1ccccc1)=N/Nc1nc(N2CCOCC2)nc(N2CCOCC2)n1", "activation": "inconclusive: 51.7%"}
{"smiles": "COc1cc(SC)ccc1C(=O)NCC1CCCCC1", "activation": "inconclusive: 43%"}
{"smiles": "O=C(/C=C/c1ccc2c(c1)OCO2)c1ccccn1", "activation": "inconclusive: 58.3%"}
{"smiles": "CCCCC(CC)C(=O)Nc1ccc(C)c(O)c1", "note": "(configuration not stated)", "activation": "inconclusive: 50.7%"}
{"smiles": "CC1CC(C)CN(C(=O)c2ccc(S(=O)(=O)N3CC(C)CC(C)C3)cc2)C1", "note": "(configuration not stated)", "activation": "inconclusive: 38.2%"}
{"smiles": "CSCC[C@H](NC(=O)OC(C)(C)C)c1nnc(SCc2cccc(F)c2)o1", "activation": "inconclusive: 37.8%"}
{"smiles": "Cc1ccc(N2C(=O)[C@@H]3C(c4ccc(F)cc4)=NO[C@@H]3C2=O)cc1", "activation": "inconclusive: 37.1%"}
{"smiles": "Fc1ccc(CSc2nnc(Cc3sc(-c4ccccc4)nc3-c3ccccc3)o2)cc1", "activation": "inconclusive: 33.2%"}
{"smiles": "COc1ccc(C(=O)N2CCN(C(=O)C3COc4ccccc4O3)CC2)cc1OC", "note": "(configuration not stated)", "activation": "inactive: 2.41%"}
{"smiles": "COc1ccc(C2CC(O)(c3ccccc3)Oc3cc(OC)ccc32)cc1", "note": "(configuration not stated)", "activation": "inconclusive: 46.7%"}
{"smiles": "CCc1ccc2nc(NC(=O)CCCc3cccs3)sc2c1", "activation": "inactive: 21%"}
{"smiles": "O=C(Nc1nc2cc3c(cc2s1)OCCO3)c1ccco1", "activation": "inconclusive: 53.5%"}
{"smiles": "Cc1nn(-c2ccccc2)c(C)c1/C=N/n1c(-c2ccccc2Br)n[nH]c1=S", "activation": "inactive: 20.8%"}
{"smiles": "Cc1ccc(C(=O)NCC(=O)OCc2cccc(Br)c2)cc1", "activation": "inconclusive: 30.2%"}
{"smiles": "COc1ccccc1N1CCN(C(=O)N2CCOCC2)CC1", "activation": "inconclusive: 61%"}
{"smiles": "Cc1c(C(=O)NCCSCc2c(Cl)cccc2Cl)cccc1[N+](=O)[O-]", "activation": "inactive: -0.219%"}
{"smiles": "C=CCc1cccc(/C=N/NC(=O)c2ccccc2Br)c1O", "activation": "inconclusive: 44%"}
{"smiles": "COCCOc1ccc(C(F)(F)F)cc1NC(=O)c1ccc(F)cc1", "activation": "inconclusive: 33.2%"}
{"smiles": "CN(Cc1ccc(F)cc1)C(=O)COc1ccccc1-c1ccccc1", "activation": "inconclusive: 34%"}
{"smiles": "COc1ccc(NC(=O)CN(C)S(=O)(=O)c2ccc3c(c2)OCCO3)c2ncccc12", "activation": "inconclusive: 43.4%"}
{"smiles": "C[C@@H](CSc1ccc(Br)cc1)CN1CC[C@H](C(C)(C)C)CCC1=O", "activation": "inconclusive: 33%"}
{"smiles": "Fc1cccc(Nc2ncnc3sc4c(c23)CCC4)c1", "activation": "inconclusive: 62.5%"}
{"smiles": "CC(C#Cc1ccc2c(c1)COc1c3ccccc3nn1-2)OC(C)(C)C", "note": "(configuration not stated)", "activation": "inconclusive: 31.2%"}
{"smiles": "CC(C)(C)C(=O)NC(=S)NNC(=O)c1ccncc1", "activation": "inactive: -3.38%"}
{"smiles": "CCOC(=O)C(C)Sc1nnc(NC(=O)c2ccc3c(c2)OCO3)s1", "note": "(configuration not stated)", "activation": "inconclusive: 40.8%"}
{"smiles": "O=C(c1ccc2nc(Cc3cccc(Cl)c3)oc2c1)N1CCC(CO)CC1", "activation": "inconclusive: 45.8%"}
{"smiles": "CN(Cc1cnccn1)C(=O)c1cc(COc2cccc(C(F)(F)F)c2)on1", "activation": "inconclusive: 39.7%"}
{"smiles": "Cc1ccc(C(=O)N/C(=C\\c2ccc(Cl)cc2)C(=O)NCCCN2CCOCC2)cc1", "activation": "inactive: 16.1%"}
{"smiles": "C[C@@H](C(=O)N1CCN(C(=O)OC(C)(C)C)CC1)n1cc(-c2cn([C@@H](C)C(=O)N3CCN(C(=O)OC(C)(C)C)CC3)nn2)nn1", "activation": "inactive: -5.88%"}
{"smiles": "CSc1cccc(CN2CCCC(CNC(=O)c3ccc(F)cc3)C2)c1", "note": "(configuration not stated)", "activation": "inactive: 16.5%"}
{"smiles": "O=C(Cn1ncc2c([nH]c3ccccc32)c1=O)NCC1CCN(Cc2ccc(F)cc2)CC1", "activation": "inactive: 5.43%"}
{"smiles": "CCc1ccc(C(=O)N2CCC(c3nc4ccccc4s3)CC2)cc1", "activation": "inconclusive: 30.6%"}
